Values from PubChem BioAssay AID602196 (INSERM, 2012).

- Screen: 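Genes whose knock-down alters cisplatin killing of lung cancer cells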
- System: human A549 lung cancer cells
- Reagents: siRNA pair against human genes
- Duration: 48 h transfection before cisplatin; time from cisplatin to read-out not stated
- Challenge: cisplatin at a dose killing half of control-siRNA cells; exact dose and duration not given
- Measurement: 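Cisplatin cell death as a shift from the 50% death seen with control siRNA; siRNAs toxic or growth-blocking alone scored 0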
- Scale: two-siRNA summed score (-2 to +2): higher = both siRNAs protect from cisplatin killing; -2 means both sensitise; mean protection from cisplatin (shift in death): higher = protection from cisplatin killing
- Active means: 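siRNAs harmful alone (LDH or WST-1) get 0; others get +1 for less and -1 for more cisplatin killing; genes are active when the two siRNAs give the same sign, summing to ±2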
- Calls: active = both siRNAs shift cisplatin killing the same way; inactive = no consistent shift, or siRNA harmful alone
The deposit covers about 23,000 reagents; shown is a random part of them. Of all reagents, 455 (2%) got an active call. 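Active includes both protection and sensitisation; some change values fall well beyond the stated -50 to +50 range.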 Entries without a mark were called inactive. Further read-outs or replicates are left out here. The record does not give: the amount of reagent.

DRG2 (developmentally regulated GTP binding protein 2) scored two-siRNA summed score (-2 to +2) = -1; mean protection from cisplatin (shift in death) (%) = -2.9.
AIPL1 (AIP like 1 HSP90 co-chaperone) scored two-siRNA summed score (-2 to +2) = 0; mean protection from cisplatin (shift in death) (%) = 0.4.
NEDD1 (NEDD1 gamma-tubulin ring complex targeting factor) scored two-siRNA summed score (-2 to +2) = 0; mean protection from cisplatin (shift in death) (%) = 6.
Silencing of AURKB (aurora kinase B) gave: two-siRNA summed score (-2 to +2) = 0; mean protection from cisplatin (shift in death) (%) = -10.4.
LOC285900 showed two-siRNA summed score (-2 to +2) = 1; mean protection from cisplatin (shift in death) (%) = 20.3.
Knock-down of GALNT16 (polypeptide N-acetylgalactosaminyltransferase 16) gave: two-siRNA summed score (-2 to +2) = 0; mean protection from cisplatin (shift in death) (%) = 2.7.
SLC2A8 showed two-siRNA summed score (-2 to +2) = 0; mean protection from cisplatin (shift in death) (%) = 0.3.
Silencing of ATAD3B (ATPase family AAA domain containing 3B) resulted in: two-siRNA summed score (-2 to +2) = 0; mean protection from cisplatin (shift in death) (%) = -3.1.
Depletion of EXOC2 (exocyst complex component 2) gave: two-siRNA summed score (-2 to +2) = 0; mean protection from cisplatin (shift in death) (%) = -1.6.
After knock-down of LOC442545 the results were two-siRNA summed score (-2 to +2) = 0; mean protection from cisplatin (shift in death) (%) = 13.4.
For SAP30L-AS1 (SAP30L and GALNT10 antisense RNA 1) the deposit lists two-siRNA summed score (-2 to +2) = 0; mean protection from cisplatin (shift in death) (%) = 6.3.
LOC439958 gave two-siRNA summed score (-2 to +2) = 0; mean protection from cisplatin (shift in death) (%) = 4.9.
After knock-down of CDK15 (cyclin dependent kinase 15), the record shows two-siRNA summed score (-2 to +2) = 2 (active); mean protection from cisplatin (shift in death) (%) = 32.4.
Silencing of VPS11 (VPS11 core subunit of CORVET and HOPS complexes) resulted in: two-siRNA summed score (-2 to +2) = 0; mean protection from cisplatin (shift in death) (%) = 9.7.
CDHR4 (cadherin related family member 4) scored two-siRNA summed score (-2 to +2) = 0; mean protection from cisplatin (shift in death) (%) = 7.2.
For SPATA32 (spermatogenesis associated 32) the deposit lists two-siRNA summed score (-2 to +2) = 0; mean protection from cisplatin (shift in death) (%) = -5.
Knock-down of UGT2B28 (UDP glucuronosyltransferase family 2 member B28) came out at: two-siRNA summed score (-2 to +2) = 0; mean protection from cisplatin (shift in death) (%) = 7.6.
USP8 (ubiquitin specific peptidase 8) showed two-siRNA summed score (-2 to +2) = -1; mean protection from cisplatin (shift in death) (%) = -12.1.
After knock-down of COG6 (component of oligomeric golgi complex 6), the screen gave two-siRNA summed score (-2 to +2) = 0; mean protection from cisplatin (shift in death) (%) = 7.9.
Depletion of MYO1G (myosin IG) came out at: two-siRNA summed score (-2 to +2) = 0; mean protection from cisplatin (shift in death) (%) = 0.4.
SETX (senataxin) gave two-siRNA summed score (-2 to +2) = 1; mean protection from cisplatin (shift in death) (%) = 14.3.

Only “mean protection from cisplatin (shift in death) (%)” (2 entries from above):
UGT2B28 (UDP glucuronosyltransferase family 2 member B28): 7.6
USP8 (ubiquitin specific peptidase 8): -12.1
